From article PMC6738495 come the findings set out here.

Chains of the proteins cited; added tags and fusions are not shown. Residues count along the entry.
UniProt P13595, residues 20-1115: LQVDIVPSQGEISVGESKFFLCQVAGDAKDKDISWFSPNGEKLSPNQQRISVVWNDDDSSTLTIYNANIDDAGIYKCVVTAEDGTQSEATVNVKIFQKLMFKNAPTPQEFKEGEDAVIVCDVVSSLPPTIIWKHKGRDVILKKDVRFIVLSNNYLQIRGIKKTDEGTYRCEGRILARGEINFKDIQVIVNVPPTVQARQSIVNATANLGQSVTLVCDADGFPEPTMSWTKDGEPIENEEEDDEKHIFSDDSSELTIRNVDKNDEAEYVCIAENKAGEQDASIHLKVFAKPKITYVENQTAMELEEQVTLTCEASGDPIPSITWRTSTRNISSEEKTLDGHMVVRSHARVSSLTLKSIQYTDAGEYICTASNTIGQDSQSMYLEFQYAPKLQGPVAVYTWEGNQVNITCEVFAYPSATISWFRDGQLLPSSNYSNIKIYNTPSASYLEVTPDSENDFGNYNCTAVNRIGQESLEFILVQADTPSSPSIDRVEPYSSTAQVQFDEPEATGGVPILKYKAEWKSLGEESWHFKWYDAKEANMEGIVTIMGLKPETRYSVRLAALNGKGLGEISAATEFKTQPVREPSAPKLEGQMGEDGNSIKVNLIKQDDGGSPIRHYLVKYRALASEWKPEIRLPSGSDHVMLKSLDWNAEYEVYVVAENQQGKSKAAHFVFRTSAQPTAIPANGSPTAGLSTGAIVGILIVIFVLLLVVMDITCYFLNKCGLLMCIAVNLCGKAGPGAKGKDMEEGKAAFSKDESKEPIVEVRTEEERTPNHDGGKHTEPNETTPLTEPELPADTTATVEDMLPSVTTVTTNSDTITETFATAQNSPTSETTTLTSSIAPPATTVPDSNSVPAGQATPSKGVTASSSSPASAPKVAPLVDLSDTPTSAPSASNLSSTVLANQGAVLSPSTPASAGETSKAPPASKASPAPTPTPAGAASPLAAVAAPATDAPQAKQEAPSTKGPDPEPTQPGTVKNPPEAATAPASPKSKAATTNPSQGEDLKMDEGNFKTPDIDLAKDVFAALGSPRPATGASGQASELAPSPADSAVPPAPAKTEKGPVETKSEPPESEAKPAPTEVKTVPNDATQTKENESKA

For this assay, the target named is mouse PrP (MoPrP) (mouse (endogenous in C57Bl/6 brain)) (UniProt P04925). Nature of the assay: cross-linking + affinity purification with mass spectrometry.

Results are given in words; binding and its absence hold for the method and conditions named. Binding seen in cells or lysates may run through a third protein. These calls come from enrichment with a bait or labelling near it, and not all partners need be listed.

As to NCAM (from UniProt P13595 20-1115), the binding entry is given as “binds”.
